Experimental data: PubChem BioAssay AID1487 (National Center for Advancing Translational Sciences (NCATS), 2009)
Values joined by “and” are separate entries in the source; they are usually repeats but may differ in a detail not shown here. Identical values can stand only once. The list shows a part of the results. Further columns of the screen follow, without active or inactive calls. The list favours compounds with an active or inconclusive main result. The note in brackets gives the kind of curve behind each potency; many fits are weak.

Assay: qHTS Assay for Modulators of Lamin A Splicing
Settings: HeLa LMNA splicing GFP/RFP minigene ratio, 48 h
Summary of the method: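 S3 HeLa cells stably expressing lamin A-EGFP splicing minigene plus DsRed2, 600 cells/well, 48 h compound exposure at 37C. Laser-scanning cytometry; analysed as GFP (500-530 nm)/RFP (575-640 nm) total intensity ratio; 0.5% DMSO vehicle.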

[1] = measured here: GFP splicing reporter channel
[2] = measured here: RFP viability control channel

Row | Compound | AC50 [1] | AC50 [2]
1 | CC(C)(C)OC(=O)N1CCC(c2c(C(=O)Nc3ccc4c(c3)OCCO4)cnn2-c2ccc(F)cc2F)CC1 | 2.24 µM [falling, partial curve, poor fit] | –
2 | CC(O)Cn1nc([N+](=O)[O-])nc1N (stereo not drawn) | – | 0.0891 µM [falling, full curve, poor fit]
3 | O=C(/C=C/c1ccc(Cl)cc1Cl)NC(=S)Nc1ccccn1 | – | 0.141 µM [rising, full curve, poor fit]
4 | COc1ccc(CNC(=O)Nc2cccc(C(F)(F)F)c2)cc1OC | – | 11.2 µM [rising, partial curve]
5 | O=C(Nc1cccc(OCc2cc(=O)n3ccccc3n2)c1)c1ccccc1Br | 8.91 µM [falling, partial curve, poor fit] | –
6 | COc1ccc(NC(=O)CC2C(=O)N(C)C(=S)N2CCc2ccccc2)cc1 (stereo not drawn) | 11.2 µM [rising, partial curve, poor fit] | 25.1 µM [rising, single point]
7 | O=C(NCCc1cccc(Cl)c1)c1cc([N+](=O)[O-])ccc1Cl | – | 20 µM [rising, single point]
8 | COc1ccccc1CCNC(=O)C(=O)NCC(c1ccco1)S(=O)(=O)c1ccc(F)cc1 (stereo not drawn) | 11.2 µM [falling, single point] | 12.6 µM [falling, single point]
9 | Cc1ccc(Cl)cc1N1CCN(C(=O)c2ccc(NS(=O)(=O)c3c(C)noc3C)cc2)CC1 | – | 11.2 µM [rising, partial curve]
10 | CC(=O)N1CCc2cc(Br)cc(S(=O)(=O)N3CCCCCC3)c21 | 31.6 µM [rising, single point] | –
11 | O=C(N/N=C/c1c[nH]c2ccccc12)C1COc2ccccc2O1 (stereo not drawn) | – | 5.01 µM [rising, full curve]
12 | CCOC(=O)N1C(=O)C2(CCCCC2)N(c2ccccc2Cl)C1=S | – | 15.8 µM [rising, single point]
13 | CCCn1nc(C(=O)N2CCc3ccccc3C2)c2ccccc2c1=O | 11.2 µM [rising, partial curve] | 15.8 µM [rising, single point]
14 | Cc1ccc(-c2cc(-c3ccccc3C)[nH]n2)c(O)c1 | – | 0.562 µM [rising, single point]
15 | COCCn1c(SCC(=O)Nc2ccc(S(=O)(=O)N3CCOCC3)cc2)nc2ccccc21 | – | 12.6 µM [rising, partial curve]
16 | CCSc1ccc(C(=O)Nc2ccc(-c3nc4ccc(C)cc4s3)cc2)cc1 | 0.447 µM [rising, full curve, poor fit] | 0.447 µM [rising, partial curve, poor fit]
17 | CCOc1ccc(NC(=O)C2CCN(c3nc4ccccc4[nH]3)CC2)cc1 | 0.631 µM [rising, full curve] | –
18 | CC(C)Cc1nc2oc3c(NCC4CCCO4)ncnc3c2c2c1CCC2 (stereo not drawn) | 2.82 µM [falling, full curve, poor fit] | –
19 | O=c1[nH]c(NCc2ccco2)nnc1Cc1ccccc1Cl | – | 35.5 µM [rising, single point]
20 | O=[N+]([O-])c1ccc(Oc2ccc(S(=O)(=O)N3CCCCC3)cc2)cc1 | – | 10 µM [rising, partial curve]
21 | NS(=O)(=O)c1ccc(NCc2cc(Cl)ccc2OCc2ccccc2F)cc1 | 35.5 µM [falling, single point] | 35.5 µM [falling, single point]
22 | CCN1CCc2nc3ccccc3c(C(=O)Nc3ccc(C#N)cc3)c2C1 | 5.01 µM [falling, full curve, poor fit] | –
23 | O=C(NCCC1=CCCCC1)c1ccc(CN2CCOCC2)cc1 | – | 25.1 µM [rising, single point]
24 | N/C(=N\OC(=O)c1ccc(Cl)c(Cl)c1)c1ccccn1 | 22.4 µM [falling, partial curve] | 22.4 µM [falling, partial curve]
25 | Cc1ccc(/C=C(\NC(=O)c2ccc(C)cc2)c2nc(=S)[nH][nH]2)cc1 | 22.4 µM [falling, single point] | 20 µM [falling, partial curve]
26 | CC(C)c1cc(C(F)(F)F)n2nc(C(=O)Nc3ccc4c(c3)OCO4)cc2n1 | 8.91 µM [rising, partial curve] | 2.24 µM [rising, full curve]
27 | CCOC(=O)c1csc(NC(=O)CSc2nnnn2-c2ccc3c(c2)OCCO3)n1 | – | 25.1 µM [rising, single point]

Row | Compound | AC50 [1] | AC50 [2]
28 | Cc1ccc(S(=O)(=O)Nc2ccc(NC(=O)Nc3cccc(C(F)(F)F)c3)cc2)cc1 | 35.5 µM [falling, single point] | –
29 | Cc1nc(-c2ccccc2)sc1-c1ccn[nH]1 | – | 0.0708 µM [falling, full curve, poor fit]
30 | Cc1cccc(C(=O)N/N=C/c2ccccn2)c1 | 35.5 µM [rising, single point] | 25.1 µM [rising, single point]
31 | Cc1sc2nc(CSc3ccc([N+](=O)[O-])c(C(F)(F)F)c3)[nH]c(=O)c2c1C | – | 3.55 µM [rising, partial curve]
32 | CCOC(=O)C1(C)NC(c2ccc(OC)cc2OC)C2C(=O)N(CC)C(=O)C21 (stereo not drawn) | 35.5 µM [falling, partial curve, poor fit] | 28.2 µM [falling, partial curve]
33 | CC(=O)OC[C@H]1O[C@@H](O/N=C(\C)CCN2CCCCc3nc(C)c(C)cc32)[C@H](OC(C)=O)[C@@H](OC(C)=O)[C@@H]1OC(C)=O | – | 17.8 µM [rising, partial curve, poor fit]
34 | Cc1ccc(NC(=S)c2nc3ccccc3[nH]2)cc1 | 0.0282 µM [falling, single point] | 0.0355 µM [falling, single point]
35 | CN1CCN(c2ccc([N+](=O)[O-])c(Sc3nc4ccccc4[nH]3)c2)CC1 | – | 12.6 µM [rising, single point]
36 | Cc1cc(C)c(NC(=O)CSc2nc3ccccc3c3nc(CCn4cncc4C)nn23)c(C)c1 | 12.6 µM [falling, single point] | 10 µM [falling, partial curve]
37 | CCN1CCN(C(=O)c2ccc3c(c2)N(Cc2cccc(Cl)c2)C(=O)c2ccccc2S3=O)CC1 (stereo not drawn) | 3.16 µM [rising, single point] | –
38 | Cc1cccc(C(C)C)c1NC(=O)CN(C)Cc1cccc(F)c1 | 10 µM [rising, partial curve, poor fit] | 11.2 µM [rising, single point]
39 | Cc1ccc(/C=C/C(=O)Nc2nc(-c3cccs3)ns2)cc1 | 17.8 µM [falling, single point] | 35.5 µM [falling, single point]
40 | CC(C)(C)c1nnc2sc(SCC(=O)c3ccccc3)nn2c1=O | – | 20 µM [rising, single point]
41 | C=C(CC)C(=O)c1ccc(OCC(=O)O)c(Cl)c1Cl | 1.58 µM [falling, partial curve] | 3.16 µM [falling, partial curve] and 3.98 µM [falling, single point] and 4.47 µM [rising, full curve, poor fit]
42 | CCCCNS(=O)(=O)c1ccc2nc(SCC(=O)c3ccccc3OC)[nH]c2c1 | – | 11.2 µM [rising, partial curve]
43 | O=c1[nH][nH]cc1C=NCc1cccc(C(F)(F)F)c1 | 2.51 µM [rising, single point] | 0.316 µM [rising, partial curve, poor fit]
44 | CCCOc1ccccc1NC(=O)c1c(-c2ccccc2)noc1C | – | 35.5 µM [rising, partial curve, poor fit]
45 | O=P(COCCOCCOCP(=O)(c1ccccc1)c1ccccc1)(c1ccccc1)c1ccccc1 | 25.1 µM [falling, partial curve] | 20 µM [falling, partial curve, poor fit]
46 | O=C(CSCC(=O)NC1CCCC1)Nc1ccccc1 | 6.31 µM [falling, partial curve, poor fit] | 0.00501 µM [falling, full curve, poor fit]
47 | Cc1nonc1C(=O)N/N=C/c1ccc([N+](=O)[O-])o1 | – | 0.891 µM [falling, full curve, poor fit]
48 | Cc1cc(C)c(C)c(OCCCCn2cnc3ccccc3c2=O)c1 | – | 22.4 µM [rising, single point]
49 | O=C(NCCCN1CCc2ccccc2C1)C1CCN(c2nnc(-n3cccc3)s2)CC1 | – | 14.1 µM [rising, single point]
50 | Cc1ccc(S(=O)(=O)Cn2nnnc2C(CC(C)C)N2CCN(C)CC2)cc1 (stereo not drawn) | 0.158 µM [rising, full curve, poor fit] | –
51 | Cc1cccc(CCNC(=O)c2ccc3c(c2)nc2n3CCC(C)C2)c1 (stereo not drawn) | 2.82 µM [rising, single point] | –
52 | COc1ccc(-n2c(=O)c3c4c(sc3n(Cc3cccc(F)c3)c2=O)CN(C(C)=O)CC4)c(OC)c1 | – | 0.141 µM [rising, full curve, poor fit]
53 | Oc1ccc(NCc2cccc(OCc3ccc(F)cc3)c2)cc1 | 12.6 µM [falling, partial curve] | 11.2 µM [falling, partial curve]
54 | COc1cccc(-n2nnnc2SCC(=O)Nc2cccc(NC(C)=O)c2)c1 | – | 15.8 µM [rising, single point]
